Assay: in vitro
Conditions: cat, ventricular myocytes

CC(C)(C(=O)O)c1ccc(C(O)CCCN2CCC(C(O)(c3ccccc3)c3ccccc3)CC2)cc1 (racemic) [Terfenadine carboxylate, 4-[1-hydroxy-4-(4-hydroxydiphenylmethyl-1-piperidinyl)butyl]-α,α-dimethylbenzeneacetic acid]
0%: inhibition at 0.01 µM | inhibition at 0.1 µM | inhibition at 1 µM
